Test results from article PMC8096250.
Results are given in words; binding and its absence hold for the method and conditions named. Some entries that bind do so weakly or less than the wild type.

Target: T1, Gar1 (S. cerevisiae) (UniProt P28007)
T1 sequence: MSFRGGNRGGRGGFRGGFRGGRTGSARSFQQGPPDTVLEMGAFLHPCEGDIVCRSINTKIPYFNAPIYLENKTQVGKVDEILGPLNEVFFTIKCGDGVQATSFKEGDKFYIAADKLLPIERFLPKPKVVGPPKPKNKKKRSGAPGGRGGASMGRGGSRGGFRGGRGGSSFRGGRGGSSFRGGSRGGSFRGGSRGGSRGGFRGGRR
Assay: co-purification after co-expression (Ni-NTA, then SEC); Cbf5, Nop10 and Gar1 co-expressed in E. coli BL21 (DE3); lysate treated with RNase A, DNase and PEI; HisTrap in 50 mM Tris/HCl pH 8.0, 0.5 M NaCl, 10% glycerol, imidazole gradient; Superdex 200; fractions analysed by SDS-PAGE

binding: binds
B1: Nop10 (protein, UniProt Q6Q547 1-58)
chain: MHLMYTLGPDGKRIYTLKKVTESGEITKSAHPARFSPDDKYSRQRVTLKKRFGLVPGQ
